{
  "source": "patent US11447504B2",
  "about": "“Macrocyclic chlorine substituted indole derivatives” (Bayer Aktiengesellschaft, priority 2017, dated 2022)",
  "test_system": "AMO-1",
  "assay": "Antiproliferation assay 7, AMO-1",
  "type": "cell-based",
  "settings": "read-out: Antiproli AMO-1 IC50 median; AMO-1 cells, 72 hours, CellTiter-Glo",
  "note": "For part of its entries the source gives two or more results. Only these are listed. An entry can have further records. The values listed for one entry appear to be repeats (runs, samples, wells or individuals).",
  "data": [
    {"smiles": "CCc1c2c(nn1C)CN(CC(F)F)CCCCn1c(C(=O)O)c(CCCOc3cccc4cc(F)ccc34)c3ccc(Cl)c-2c31", "values": [
      {"measurement": "IC50", "result": "1.29 µM and 12 µM"}
    ]}
  ]
}
